Experimental data from the supplement of paper PMC3334620.
In all, about 33,000 sequences were measured (“E-score (-0.5 to 0.5)”: median about -0.0014, highest 2% from about 0.25 on). Some of the results follow.

Biological target: T1, Cad1 (UniProt P24813)
T1 sequence: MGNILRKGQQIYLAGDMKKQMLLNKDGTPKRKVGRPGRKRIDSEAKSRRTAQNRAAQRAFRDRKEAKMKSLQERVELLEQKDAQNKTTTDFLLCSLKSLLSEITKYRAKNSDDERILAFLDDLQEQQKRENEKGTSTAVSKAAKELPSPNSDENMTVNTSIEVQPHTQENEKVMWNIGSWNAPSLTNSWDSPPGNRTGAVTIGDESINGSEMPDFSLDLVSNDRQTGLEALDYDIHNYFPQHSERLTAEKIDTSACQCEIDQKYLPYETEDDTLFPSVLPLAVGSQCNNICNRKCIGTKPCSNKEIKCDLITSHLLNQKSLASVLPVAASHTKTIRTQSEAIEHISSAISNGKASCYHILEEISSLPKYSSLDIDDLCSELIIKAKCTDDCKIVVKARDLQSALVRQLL
Test: PBM E-score (8-mer binding enrichment) (E-score (-0.5 to 0.5)); higher = stronger / more preferred TF binding
Conditions: protein concentration: 100 nM; construct: GST-full length
Outline: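 Detection of bound protein used fluorescent anti-GST, with scans normalised by masliner. The proteins were GST-tagged yeast transcription factors applied at about 100-200 nM to universal all-10-mer Agilent arrays made double-stranded by primer extension. Each ungapped eight-base word, pooled with its reverse complement, was scored with an E-score from the Universal PBM Analysis Suite.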

| Sequence | PBM E-score |
| --- | --- |
| ATGGCTGA | 0.0987 |
| AGACCCGA | 0.00515 |
| CCGCGTCA | -0.101 |
| AGCCTAGC | -0.104 |
| AACCCTCT | -0.267 |
| ACCTCTTG | -0.137 |
| TAGCACGA | 0.121 |
| TGCTACCA | 0.0111 |
| CTACACTC | -0.0224 |
| AACCCGAA | 0.0851 |
| CAACGACC | -0.138 |
| GTGGGAAA | 0.0974 |
| AGGACCCC | -0.203 |
| CGGGCCCA | -0.114 |
| CCGATTCA | -0.0748 |
| ATTAGACC | -0.224 |
| CCGCAAAA | 0.0906 |
| CCGGGTAC | -0.281 |
| CTCACCCA | -0.169 |
| GCCACGGA | -0.00423 |
| AACAACTT | 0.183 |
| CTCCCATC | -0.149 |
| CAGAGACA | -0.226 |
| ACACCTCT | -0.0373 |

| Sequence | PBM E-score |
| --- | --- |
| GACTATCC | -0.0732 |
| ATTAGTAG | 0.0921 |
| GCTGCAAA | 0.121 |
| TTATGAAA | 0.0909 |
| AGCTCGTC | -0.00865 |
| ACAACTTC | 0.119 |
| CGGCCTCA | 0.0551 |
| GAATTAGA | 0.0025 |
| ACACTTTG | 0.115 |
| ATTGCAGA | -0.094 |
| CCGTAACC | 0.0319 |
| AGGGCACT | -0.201 |
| ATCTCTTG | -0.0545 |
| CTCCCATA | -0.213 |
| GCTACGCC | -0.242 |
| GAGGGAAA | -0.247 |
| CCTCATGC | -0.287 |
| ACAGCCAC | 0.0429 |
| CACCCTGG | -0.233 |
| ACTTCATG | 0.00178 |
| CACCCGTA | -0.174 |
| AAATTCAT | 0.148 |
| ATCGTCCG | 0.148 |
| ACGCGCCG | -0.108 |

| Sequence | PBM E-score |
| --- | --- |
| AATCCATG | -0.0149 |
| AGAGGAGC | -0.178 |
| AACAGTTA | 0.00761 |
| CCGCGAAC | 0.211 |
| GGCGGAAA | 0.0304 |
| AGGCTCAG | -0.181 |
| CCTAGGTA | -0.116 |
| CGGGAAAC | 0.14 |
| ATACCCCC | -0.289 |
| CCCCCACC | -0.425 |
| ATACTCTC | -0.0105 |
| CACGGGAA | -0.143 |
| GAGAACCA | -0.0413 |
| ACTCTGAG | -0.104 |
| ACCATGGT | -0.057 |
| CGGTCGTC | -0.164 |
| CCCCTTTA | -0.215 |
| CCCAGACG | -0.129 |
| AGTCAGGG | -0.148 |
| AGCCTTGC | -0.0869 |
| ACTATGTC | 0.0779 |
| ATAGGCTG | 0.0227 |
| GCTTCGAC | -0.117 |
| ACGTAGGG | -0.284 |

4 records drawn at random from the list so far:

| Sequence | PBM E-score |
| --- | --- |
| GAGAACCA | -0.0413 |
| ACCATGGT | -0.057 |
| AGGCTCAG | -0.181 |
| CCTAGGTA | -0.116 |

Next results

| Sequence | PBM E-score |
| --- | --- |
| GTGGTTGA | 0.0124 |
| AGATGGAA | -0.0158 |
| AATTTAGT | 0.212 |
| TGCGGCCA | -0.03 |
| CGAGCAGC | 0.0889 |
| GAGGATCA | -0.0941 |
| CCAAATGG | 0.0135 |
| CGGTTCGC | -0.0427 |
| AAGGCGTA | -0.135 |
| ACACCCGC | 0.134 |
| GACCAAAC | -0.0136 |
| TAGTCCGA | -0.113 |
| GCTCAGCA | 0.0822 |
| AAGTATTA | -0.0007 |
| CTTGGACA | -0.148 |
| CTTACACC | -0.233 |
| AGCCCTAT | -0.045 |
| AAAAACAT | -0.0184 |
| ACCCCTAC | -0.269 |
| AATAGGTG | -0.0516 |
| AGTTTTTA | 0.0256 |
| AGGAAGCA | 0.0172 |
| AGATTCAT | -0.0355 |
| TGAACCCA | -0.017 |

| Sequence | PBM E-score |
| --- | --- |
| CAGTCGCC | -0.0771 |
| GAAACTTA | 0.156 |
| CGTAGAAA | -0.0392 |
| AAACTTTA | 0.041 |
| AGCCGGAT | 0.061 |
| AATCTGGT | 0.0701 |
| CACAACAA | 0.0156 |
| CGTACTAC | 0.0392 |
| CCTGAGGA | 0.0598 |
| CAAGTGGA | -0.0832 |
| ATAGGATG | -0.0449 |
| AATCTATA | 0.0946 |
| AAGCGTAC | -0.113 |
| CGGGGTGA | -0.119 |
| AGCGAGGC | -0.0859 |
| ATAGTAAG | 0.187 |
| CACGTACA | -0.107 |
| AGTCCGCC | -0.00907 |
| CGCAACCG | 0.0752 |
| GATTTAGA | -0.0069 |
| GCGAGTTA | 0.0928 |
| CAGCTTCG | 0.0121 |
| GACTTCGA | -0.0474 |
| TAACATGA | 0.0484 |

| Sequence | PBM E-score |
| --- | --- |
| TCGGTGAA | -0.0335 |
| AAGCTTAC | 0.192 |
| ATTAAGCA | 0.0816 |
| CAGTGCTC | -0.108 |
| AAAACCTC | 0.156 |
| CGCCCTGC | -0.128 |
| GAGGGAGA | -0.15 |
| CGAGGTTA | 0.049 |
| CCTTTTTA | -0.144 |
| TGAGGCCA | 0.102 |
| ACTGTGCA | -0.00185 |
| AGCCTACG | 0.0943 |
| CATTGGAC | 0.00015 |
| CGTAAATC | 0.0267 |
| TAAATGCA | 0.14 |
| TAATTAAA | 0.114 |
| GGAGTCCA | -0.162 |
| ATCATTGG | -0.0561 |
| CATCCCTC | -0.0431 |
| CAACGGCG | 0.0982 |
| AGTGTTGC | 0.098 |
| AAGAGAAG | -0.0243 |
| AGCGTTGC | 0.041 |
| AGTCAGAG | -0.058 |

| Sequence | PBM E-score |
| --- | --- |
| TAATCGCA | 0.214 |
| AGGTTCGC | -0.197 |
| AATATGTA | 0.206 |
| ACGACAGG | -0.0126 |
| ACTCACCC | -0.119 |
| ACTCCGCC | -0.0792 |
| TAGAACGA | 0.0448 |
| ATACACCC | 0.0749 |
| CAAGTGAA | 0.0676 |
| TGAACGAA | 0.0808 |
| CGTTTTAG | -0.0529 |
| GGACCACA | 0.137 |
| AAAGTGTT | 0.201 |
| GCTCAGGA | 0.0805 |
| ACGAAGTA | -0.0512 |
| ACTCGGGG | -0.188 |
| GGACTGTA | -0.0478 |
| ACATCGCT | 0.0942 |
| CGGCAAAC | 0.181 |
| AATGCGGT | -0.0537 |
| CCTCCAGA | -0.208 |
| AGGCAGAT | -0.0371 |
| AGGTTCCA | -0.102 |

Shown tab-delimited: part of the list above.
Sequence	PBM E-score
TGAACGAA	0.0808
CGTTTTAG	-0.0529
GGACCACA	0.137
